In this test the target is T1, lymphotoxin beta receptor (LT-β-R) (human, UniProt P36941 31-435).
T1 construct: whole, on cells; also called LT-β receptor
Description: FACS of LT-β-R-expressing HT-29 cells, conditioned medium.

Sequences of proteins named here, by UniProt entry; tags and fusion partners are left off. Residues count along the entry.
UniProt P36941, residues 31-435: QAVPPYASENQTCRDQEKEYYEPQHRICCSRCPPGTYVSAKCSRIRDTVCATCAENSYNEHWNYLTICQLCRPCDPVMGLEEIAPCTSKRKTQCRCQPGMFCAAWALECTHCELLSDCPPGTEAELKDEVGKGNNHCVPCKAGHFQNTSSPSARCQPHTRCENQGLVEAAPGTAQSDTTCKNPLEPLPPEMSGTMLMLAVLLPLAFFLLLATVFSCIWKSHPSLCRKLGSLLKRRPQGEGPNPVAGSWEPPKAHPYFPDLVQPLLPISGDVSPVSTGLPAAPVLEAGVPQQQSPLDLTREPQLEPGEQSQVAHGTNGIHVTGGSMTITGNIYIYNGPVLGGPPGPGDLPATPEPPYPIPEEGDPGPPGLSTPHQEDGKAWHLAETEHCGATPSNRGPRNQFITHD

No constants are given. Whether binding was seen depends on the method and setting. Some binding calls cover weakened binding; strength is not graded here.

B1: chimeric CBE11 (chCBE11) (antibody, V domains shown)
VH: EVQLVESGGGLVKPGGSLKLSCAASGFTFSDYYMYWFRQTPEKRLEWVATISDGGSYTYYPDSVKGRFTISRDNAKNNLYLQMSSLKSEDTAMYYCVREENGNFYYFDYWGQGTTVTVSS
VL: DIKMTQSPSSMYASLGERVTITCKAGQDIKSYLSWYQQKPWKSPKILIYYATRLADGVPSRFSGSGSGQDYSLTISSLESDDTATYYCLQHGESPWTFGGGTKLEIK
notes: the latter is followed; also called pEAG982/pEAG983
Take B1: the binding result is listed as “binds”.

The values above are taken from patent US20040058394A1 (Biogen, published 2004).
